Experimental data: PMC11354755

By UniProt entry, the sequences of proteins in these tests, tags left out.
UniProt P39081: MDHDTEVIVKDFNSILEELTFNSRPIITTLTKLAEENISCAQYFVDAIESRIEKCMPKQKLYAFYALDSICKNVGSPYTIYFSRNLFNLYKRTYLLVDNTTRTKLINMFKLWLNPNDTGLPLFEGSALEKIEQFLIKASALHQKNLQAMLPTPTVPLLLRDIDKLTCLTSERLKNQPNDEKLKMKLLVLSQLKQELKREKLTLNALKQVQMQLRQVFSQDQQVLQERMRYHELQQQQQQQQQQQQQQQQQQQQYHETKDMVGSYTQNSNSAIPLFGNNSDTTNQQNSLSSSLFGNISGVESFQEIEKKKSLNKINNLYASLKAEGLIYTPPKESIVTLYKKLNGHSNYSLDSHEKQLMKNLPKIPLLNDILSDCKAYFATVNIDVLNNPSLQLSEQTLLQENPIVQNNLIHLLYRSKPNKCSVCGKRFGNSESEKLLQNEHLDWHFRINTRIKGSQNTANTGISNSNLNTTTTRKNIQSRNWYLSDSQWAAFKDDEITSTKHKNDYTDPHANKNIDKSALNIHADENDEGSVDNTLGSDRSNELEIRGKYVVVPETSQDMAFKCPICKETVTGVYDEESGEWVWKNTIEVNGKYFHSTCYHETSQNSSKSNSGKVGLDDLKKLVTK

T1: TFIIB sua7-1 mutant (E62K) (S. cerevisiae) (UniProt P29055)
T1 sequence: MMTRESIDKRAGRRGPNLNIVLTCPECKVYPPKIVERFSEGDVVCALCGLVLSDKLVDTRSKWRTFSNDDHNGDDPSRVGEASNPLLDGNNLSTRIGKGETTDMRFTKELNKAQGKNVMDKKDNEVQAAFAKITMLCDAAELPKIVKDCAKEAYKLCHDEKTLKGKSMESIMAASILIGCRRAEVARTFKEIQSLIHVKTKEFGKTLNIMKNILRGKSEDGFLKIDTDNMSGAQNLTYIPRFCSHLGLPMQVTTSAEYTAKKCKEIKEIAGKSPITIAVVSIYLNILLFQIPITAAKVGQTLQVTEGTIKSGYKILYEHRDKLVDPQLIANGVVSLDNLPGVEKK

B1: Rna15 (protein, UniProt P25299 1-296)
chain: MNRQSGVNAGVQNNPPSRVVYLGSIPYDQTEEQILDLCSNVGPVINLKMMFDPQTGRSKGYAFIEFRDLESSASAVRNLNGYQLGSRFLKCGYSSNSDISGVSQQQQQQYNNINGNNNNNGNNNNNSNGPDFQNSGNANFLSQKFPELPSGIDVNINMTTPAMMISSELAKKPKEVQLKFLQKFQEWTRAHPEDAVSLLELCPQLSFVTAELLLTNGICKVDDLIPLASRPQEEASATNNNSVNEVVDPAVLNKQKELLKQVLQLNDSQISILPDDERMAIWDLKQKALRGEFGAF
B2: Clp1 (protein, UniProt Q08685 1-445)
chain: MASLPGIDEHTTSEELITGDNEWHKLVIPKGSDWQIDLKAEGKLIVKVNSGIVEIFGTELAVDDEYTFQNWKFPIYAVEETELLWKCPDLTTNTITVKPNHTMKYIYNLHFMLEKIRMSNFEGPRVVIVGGSQTGKTSLSRTLCSYALKFNAYQPLYINLDPQQPIFTVPGCISATPISDILDAQLPTWGQSLTSGATLLHNKQPMVKNFGLERINENKDLYLECISQLGQVVGQRLHLDPQVRRSGCIVDTPSISQLDENLAELHHIIEKLNVNIMLVLCSETDPLWEKVKKTFGPELGNNNIFFIPKLDGVSAVDDVYKRSLQRTSIREYFYGSLDTALSPYAIGVDYEDLTIWKPSNVFDNEVGRVELFPVTITPSNLQHAIIAITFAERRADQATVIKSPILGFALITEVNEKRRKLRVLLPVPGRLPSKAMILTSYRYLE
B3: Rna14 (protein, UniProt P25298 1-677)
chain: MSSSTTPDLLYPSADKVAEPSDNIHGDELRLRERIKDNPTNILSYFQLIQYLETQESYAKVREVYEQFHNTFPFYSPAWTLQLKGELARDEFETVEKILAQCLSGKLENNDLSLWSTYLDYIRRKNNLITGGQEARAVIVKAFQLVMQKCAIFEPKSSSFWNEYLNFLEQWKPFNKWEEQQRIDMLREFYKKMLCVPFDNLEKMWNRYTQWEQEINSLTARKFIGELSAEYMKARSLYQEWLNVTNGLKRASPINLRTANKKNIPQPGTSDSNIQQLQIWLNWIKWERENKLMLSEDMLSQRISYVYKQGIQYMIFSAEMWYDYSMYISENSDRQNILYTALLANPDSPSLTFKLSECYELDNDSESVSNCFDKCTQTLLSQYKKIASDVNSGEDNNTEYEQELLYKQREKLTFVFCVYMNTMKRISGLSAARTVFGKCRKLKRILTHDVYVENAYLEFQNQNDYKTAFKVLELGLKYFQNDGVYINKYLDFLIFLNKDSQIKTLFETSVEKVQDLTQLKEIYKKMISYESKFGNLNNVYSLEKRFFERFPQENLIEVFTSRYQIQNSNLIKKLELTYMYNEEEDSYFSSGNGDGHHGSYNMSSSDRKRLMEETGNNGNFSNKKFKRDSELPTEVLDLLSVIPKRQYFNTNLLDAQKLVNFLNDQVEIPTVESTKSG

Biological target: T1, TFIIB sua7-1 mutant (E62K) (S. cerevisiae)
Experiment: affinity purification with mass spectrometry; TFIIB affinity purified from chromatin and soluble fractions of S. cerevisiae TFIIB^WT and TFIIB^sua7-1 (sua7-1-HA, WA158) cells; quantitative proteomics, TFIIB-normalized spectral abundance factor (BNSAF); four replicates

Row | Molecule | binding
1 | Pcf11 (from UniProt P39081 1-626) | binds
2 | B1 | binds
3 | B2 | binds
4 | B3 | binds

These are yes or no findings as the source states them, for the method shown. In cells and extracts the contact can be indirect. These calls come from enrichment with a bait or labelling near it, and not all partners need be listed.
